Assay [1] has as its target T1, Flag-tagged THOC3 (human) (UniProt Q96J01).
T1 sequence: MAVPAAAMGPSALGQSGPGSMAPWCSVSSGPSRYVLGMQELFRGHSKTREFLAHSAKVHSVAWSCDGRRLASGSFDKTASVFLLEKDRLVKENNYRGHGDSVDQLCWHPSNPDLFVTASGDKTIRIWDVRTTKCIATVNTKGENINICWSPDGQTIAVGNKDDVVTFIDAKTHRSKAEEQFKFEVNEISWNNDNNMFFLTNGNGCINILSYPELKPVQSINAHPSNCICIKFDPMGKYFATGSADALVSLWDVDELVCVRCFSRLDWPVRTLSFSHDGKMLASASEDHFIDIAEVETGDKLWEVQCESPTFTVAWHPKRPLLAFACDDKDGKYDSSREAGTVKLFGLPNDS
The assay can be described thus: condition: only cells incubated with 50 μg/ml cycloheximide for 5 h; co-IP; cells transfected with Flag-tagged THOC3 for 18 h, then incubated with 50 μg/ml cycloheximide for 5 h; immunoprecipitates blotted with anti-CCT8/CCT6A antibodies.

The chains behind the UniProt entries cited, without tags or fusion partners.
UniProt P50990: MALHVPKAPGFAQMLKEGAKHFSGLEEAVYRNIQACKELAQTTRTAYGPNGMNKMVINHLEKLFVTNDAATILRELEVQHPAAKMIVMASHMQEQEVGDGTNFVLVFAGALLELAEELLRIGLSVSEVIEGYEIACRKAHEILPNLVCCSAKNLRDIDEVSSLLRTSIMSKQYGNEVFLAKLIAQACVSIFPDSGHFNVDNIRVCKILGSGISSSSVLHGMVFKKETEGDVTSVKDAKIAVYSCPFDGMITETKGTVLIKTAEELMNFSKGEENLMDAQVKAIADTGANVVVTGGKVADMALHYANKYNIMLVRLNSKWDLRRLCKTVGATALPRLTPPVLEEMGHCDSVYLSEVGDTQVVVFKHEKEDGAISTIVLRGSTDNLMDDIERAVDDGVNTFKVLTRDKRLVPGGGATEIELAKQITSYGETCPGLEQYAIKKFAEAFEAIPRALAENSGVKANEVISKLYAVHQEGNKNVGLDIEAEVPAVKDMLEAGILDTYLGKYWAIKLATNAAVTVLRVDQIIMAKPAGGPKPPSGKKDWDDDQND
UniProt P67809: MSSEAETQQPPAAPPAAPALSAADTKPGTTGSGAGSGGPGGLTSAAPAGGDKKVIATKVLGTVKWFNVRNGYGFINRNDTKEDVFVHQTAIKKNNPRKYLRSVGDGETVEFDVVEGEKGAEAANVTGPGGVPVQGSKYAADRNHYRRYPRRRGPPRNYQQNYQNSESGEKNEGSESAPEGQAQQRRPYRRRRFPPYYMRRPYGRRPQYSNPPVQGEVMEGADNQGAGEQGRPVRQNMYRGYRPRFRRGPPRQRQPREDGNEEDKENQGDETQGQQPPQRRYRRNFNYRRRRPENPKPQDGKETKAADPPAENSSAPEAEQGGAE

Assay [2] concerns the target T1, Flag-tagged THOC3 (human). The assay can be described thus: co-IP; lysates of H1703 cells transfected with Flag-tagged THOC3; IP with anti-CCT8, anti-CCT6A, anti-YBX1, anti-Flag or IgG antibody (Protein A/G agarose or Flag magnetic beads), Western blot; also lysates prepared in the presence or absence of ATP and MgCl2.

These are yes or no findings as the source states them, for the method shown. In cells and extracts the contact can be indirect. Some binding calls cover weakened binding; strength is not graded here. Sequences can lack the tags named with a protein.

In the case of CCT8 (from UniProt P50990 1-548), the binding result in assay [1] is listed as “no binding”; in assay [2], “binds”.
In the case of YBX1 (from UniProt P67809 1-324), the binding entry in assay [2] is given as “binds”.

B1: CCT2 (protein, UniProt P78371 1-535)
chain: MASLSLAPVNIFKAGADEERAETARLTSFIGAIAIGDLVKSTLGPKGMDKILLSSGRDASLMVTNDGATILKNIGVDNPAAKVLVDMSRVQDDEVGDGTTSVTVLAAELLREAESLIAKKIHPQTIIAGWREATKAAREALLSSAVDHGSDEVKFRQDLMNIAGTTLSSKLLTHHKDHFTKLAVEAVLRLKGSGNLEAIHIIKKLGGSLADSYLDEGFLLDKKIGVNQPKRIENAKILIANTGMDTDKIKIFGSRVRVDSTAKVAEIEHAEKEKMKEKVERILKHGINCFINRQLIYNYPEQLFGAAGVMAIEHADFAGVERLALVTGGEIASTFDHPELVKLGSCKLIEEVMIGEDKLIHFSGVALGEACTIVLRGATQQILDEAERSLHDALCVLAQTVKDSRTVYGGGCSEMLMAHAVTQLANRTPGKEAVAMESYAKALRMLPTIIADNAGYDSADLVAQLRAAHSEGNTTAGLDMREGTIGDMAILGITESFQVKRQVLLSAAEAAEVILRVDNIIKAAPRKRVPDHHPC
Regarding B1, the binding result in assay [2] is recorded as “binds”.

The values are drawn from PMC10374565.
